{"sequences": {"note": "The chains behind the UniProt entries cited, without tags or fusion partners.", "UniProt P48643": "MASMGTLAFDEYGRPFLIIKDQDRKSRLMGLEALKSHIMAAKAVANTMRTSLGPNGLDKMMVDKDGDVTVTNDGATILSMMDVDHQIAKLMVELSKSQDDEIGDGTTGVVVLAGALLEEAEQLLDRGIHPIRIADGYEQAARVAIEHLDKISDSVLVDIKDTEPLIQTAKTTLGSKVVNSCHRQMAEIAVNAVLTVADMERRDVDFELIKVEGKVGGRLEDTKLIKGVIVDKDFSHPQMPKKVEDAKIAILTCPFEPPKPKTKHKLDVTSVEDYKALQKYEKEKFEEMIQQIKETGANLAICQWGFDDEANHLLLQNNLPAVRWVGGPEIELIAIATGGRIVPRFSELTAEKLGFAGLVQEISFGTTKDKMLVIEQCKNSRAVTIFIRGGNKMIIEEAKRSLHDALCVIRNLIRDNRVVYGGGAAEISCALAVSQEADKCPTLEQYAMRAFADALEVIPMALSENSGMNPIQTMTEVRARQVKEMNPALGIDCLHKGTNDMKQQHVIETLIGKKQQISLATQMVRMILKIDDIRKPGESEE", "UniProt Q99832": "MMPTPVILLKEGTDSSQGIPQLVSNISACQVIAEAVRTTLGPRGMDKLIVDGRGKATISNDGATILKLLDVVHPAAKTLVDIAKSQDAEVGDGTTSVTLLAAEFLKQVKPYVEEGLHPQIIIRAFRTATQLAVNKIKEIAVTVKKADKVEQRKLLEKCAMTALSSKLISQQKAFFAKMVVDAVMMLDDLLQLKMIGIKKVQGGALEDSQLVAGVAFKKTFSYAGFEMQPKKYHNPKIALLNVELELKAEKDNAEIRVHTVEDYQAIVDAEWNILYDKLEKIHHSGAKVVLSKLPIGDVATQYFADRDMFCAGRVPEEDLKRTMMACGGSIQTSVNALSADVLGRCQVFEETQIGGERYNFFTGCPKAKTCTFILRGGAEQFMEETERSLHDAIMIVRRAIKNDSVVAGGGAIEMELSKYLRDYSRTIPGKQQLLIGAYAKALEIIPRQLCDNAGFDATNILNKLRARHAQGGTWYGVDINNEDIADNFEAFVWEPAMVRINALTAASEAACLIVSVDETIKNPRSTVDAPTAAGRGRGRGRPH", "UniProt P50990": "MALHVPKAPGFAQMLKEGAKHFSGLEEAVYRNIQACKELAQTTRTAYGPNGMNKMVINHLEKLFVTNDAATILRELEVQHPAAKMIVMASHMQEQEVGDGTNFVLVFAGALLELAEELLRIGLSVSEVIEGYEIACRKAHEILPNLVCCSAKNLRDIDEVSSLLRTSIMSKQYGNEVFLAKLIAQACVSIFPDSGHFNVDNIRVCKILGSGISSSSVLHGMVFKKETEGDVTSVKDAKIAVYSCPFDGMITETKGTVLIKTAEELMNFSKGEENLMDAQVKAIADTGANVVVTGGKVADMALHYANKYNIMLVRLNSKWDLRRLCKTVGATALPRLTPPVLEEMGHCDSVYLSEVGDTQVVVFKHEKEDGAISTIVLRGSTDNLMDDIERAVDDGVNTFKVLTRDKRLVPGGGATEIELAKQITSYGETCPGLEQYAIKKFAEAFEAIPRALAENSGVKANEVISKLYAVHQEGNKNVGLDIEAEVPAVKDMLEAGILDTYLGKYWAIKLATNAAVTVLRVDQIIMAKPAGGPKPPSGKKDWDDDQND", "UniProt P67809": "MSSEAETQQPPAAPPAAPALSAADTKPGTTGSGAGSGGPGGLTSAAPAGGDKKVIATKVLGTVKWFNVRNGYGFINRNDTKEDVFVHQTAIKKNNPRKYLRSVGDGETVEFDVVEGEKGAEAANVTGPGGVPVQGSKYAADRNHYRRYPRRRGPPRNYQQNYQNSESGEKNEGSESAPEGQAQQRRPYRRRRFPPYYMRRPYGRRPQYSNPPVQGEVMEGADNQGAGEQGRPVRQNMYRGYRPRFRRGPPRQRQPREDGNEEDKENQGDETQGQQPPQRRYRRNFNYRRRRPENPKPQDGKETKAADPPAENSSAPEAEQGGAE"}, "source": "paper PMC10374565", "note": "These are yes or no findings as the source states them, for the method shown. Binding seen in cells or lysates may run through a third protein. Here binding means that the protein was enriched with, or labelled near, the bait; the list need not be complete. Sequences can lack the tags named with a protein."}
{"biological_target": "T1, Flag-tagged THOC3 (human) (UniProt Q96J01)", "T1 sequence": "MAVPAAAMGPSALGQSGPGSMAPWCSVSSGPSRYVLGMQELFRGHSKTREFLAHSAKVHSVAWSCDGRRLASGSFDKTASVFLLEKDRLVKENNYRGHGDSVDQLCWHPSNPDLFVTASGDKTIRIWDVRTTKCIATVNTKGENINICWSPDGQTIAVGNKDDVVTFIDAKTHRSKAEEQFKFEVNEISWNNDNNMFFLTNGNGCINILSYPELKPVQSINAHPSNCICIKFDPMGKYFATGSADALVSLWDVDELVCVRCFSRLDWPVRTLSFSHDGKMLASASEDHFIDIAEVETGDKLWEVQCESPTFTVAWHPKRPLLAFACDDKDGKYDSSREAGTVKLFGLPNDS", "assay": "affinity purification with mass spectrometry; immunoprecipitation with Flag and IgG antibodies from H1703 cells; silver-stained bands excised, in-gel trypsin digestion, nanoLC-MS/MS (Orbitrap Fusion), Mascot search"}
{"molecule": "CCT5 (from UniProt P48643 1-541)", "binding": "binds"}
{"molecule": "CCT7 (from UniProt Q99832 1-543)", "binding": "binds"}
{"molecule": "CCT8 (from UniProt P50990 1-548)", "binding": "binds"}
{"molecule": "YBX1 (from UniProt P67809 1-324)", "binding": "binds"}
{"molecule": "CCT2 (protein, UniProt P78371 1-535) MASLSLAPVNIFKAGADEERAETARLTSFIGAIAIGDLVKSTLGPKGMDKILLSSGRDASLMVTNDGATILKNIGVDNPAAKVLVDMSRVQDDEVGDGTTSVTVLAAELLREAESLIAKKIHPQTIIAGWREATKAAREALLSSAVDHGSDEVKFRQDLMNIAGTTLSSKLLTHHKDHFTKLAVEAVLRLKGSGNLEAIHIIKKLGGSLADSYLDEGFLLDKKIGVNQPKRIENAKILIANTGMDTDKIKIFGSRVRVDSTAKVAEIEHAEKEKMKEKVERILKHGINCFINRQLIYNYPEQLFGAAGVMAIEHADFAGVERLALVTGGEIASTFDHPELVKLGSCKLIEEVMIGEDKLIHFSGVALGEACTIVLRGATQQILDEAERSLHDALCVLAQTVKDSRTVYGGGCSEMLMAHAVTQLANRTPGKEAVAMESYAKALRMLPTIIADNAGYDSADLVAQLRAAHSEGNTTAGLDMREGTIGDMAILGITESFQVKRQVLLSAAEAAEVILRVDNIIKAAPRKRVPDHHPC", "binding": "binds"}
